Results reported in paper PMC5597257.

Amino acid sequences for entries named in this document (tags omitted). A change or cut given only in a name is not applied to a line headed by its entry.
UniProt A0A219V415: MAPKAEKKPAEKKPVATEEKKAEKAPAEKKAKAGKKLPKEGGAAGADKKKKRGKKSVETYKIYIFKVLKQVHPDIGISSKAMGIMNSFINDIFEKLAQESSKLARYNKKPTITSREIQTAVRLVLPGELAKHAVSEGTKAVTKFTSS

Target: NbHUB1 fused to the N-terminal fragment of YFP (pSPYNE-NbHUB1) (Nicotiana benthamiana)
Assay: split reporter; BiFC in planta, lower epidermis of N. benthamiana leaves, agroinfiltration of pSPYNE and pSPYCE fusions, confocal microscopy at 5 dpi

**Q.** With “NbH2B fused to the C-terminal fragment of YFP (pSPYCE-NbH2B) (from UniProt A0A219V415)” as the substance, how does the binding read?
**A.** binds

These are yes or no findings as the source states them, for the method shown. In cells and extracts the contact can be indirect. Binding calls can cover weak binding; strength is not graded here.
